“Also recorded” adds a separate entry of the source.
Experiments:
[1] = Odour evaluation of the compound and comparison with known ingredients
[2] = Olfactive effect in lemon type perfuming composition for an all purpose cleaner; conditions: 250 parts by weight added to 2500 parts of all purpose cleaner composition
Protocol: A perfuming composition of the lemon type for an “all purpose cleaner” was prepared by admixing the following ingredients: […]

[3] = Olfactive effect in citrus, herbaceous perfuming composition for a shower gel; conditions: 100 parts by weight added to 3000 parts of shower gel composition
Protocol: A perfuming composition of the “citrus, herbaceous” type for a shower gel was prepared by admixing the following ingredients: […]

| Compound | Odour and comparison with known ingredients [1] | Overall olfactive effect of the addition to the composition [2] | Overall olfactive effect of the addition to the composition [3] |
| --- | --- | --- | --- |
| CC(C)=C(C)CC/C(C)=C/C#N [(2E)-3,6,7-Trimethyl-2,6-octadienenitrile] | Very nice and natural lemony note. The E isomer possesses a stronger lemony character than the above E/Z mixture. | – | – |
| CC(CC#N)CCC(C)C(C)C (stereo not drawn) [3,6,7-trimethyloctanenitrile] | Citrus/citral, nitrile, the citral note is stronger than the one of the prior art analogue 3,7- dimethyloctanenitrile. The odor of this invention's compound is close to the one of geranyl nitrile. | – | – |
| CC(C)=C(C)CCC(C)CC#N (stereo not drawn) [3,6,7-trimethyl-6-octenenitrile] | Although structurally close to citronellyl nitrile, this compound is more powerful, elegant, lemony and zest than citronellyl nitrile. | much more lemony, powerful, elegant and natural than the one obtained with citronellyl nitrile | – |
| CC(C)=C(C)C/C=C(\C)CC#N [(3E)-3,6,7-Trimethyl-3,6-octadienenitrile] | Lime, citronellol, geranyl nitrile but less aggressive/ chemical and less nitrile than the latter. Also some floral/rosy aspects. | – | – |
| CC(=CC#N)CCC(C)=C(C)C [3,6,7-trimethyl-2,6-octadienenitrile] | – | a lemon character and a functional aspect; also recorded: as good as, and even more lemony than, the addition of the same amount of geranyl nitrile | a clear lemon/lime connotation |
| CC(CC#N)CCC1(C)CC1(C)C (stereo not drawn) [3-methyl-5-(1,2,2-trimethylcyclopropyl)pentanenitrile] | Nice citrus note, slightly nitrile but well lemony, more citral than the above cyclopropane derivative. Nice and pleasant, more natural than geranyl nitrile. | – | – |
| C/C(=C/C#N)CCC1(C)CC1(C)C (stereo not drawn) [3-methyl-5-(1,2,2-trimethylcyclopropyl)-2-pentenenitrile] | Citrus, lemony, fruity, nitrile, more natural and less fatty than geranyl nitrile. The citral character of this compound is stronger than the one of geranyl nitrile but is slightly inferior to the one of 3,6,7- trimethyl-2,6-octadienenitrile. | – | – |
| C/C(=C/C#N)CCC(C)C(C)C (stereo not drawn) [3,6,7-trimethyl-2-octenenitrile] | Citrus, lemony, green and nitrile, as overall the odor is less fatty/nitrile and more elegant than the one of its analogue 3,7-dimethyl-2- octenenitrile. | – | – |
| CC(C)=C(C)CC/C(C)=C\C#N [(2Z)-3,6,7-Trimethyl-2,6-octadienenitrile] | Lemony note with a fatty and cumin aspect. The Z isomer possesses a weaker lemony character than the above E/Z mixture. Said compound is olfactively between geranyl nitrile and citral but, although being more citral, closer to geranyl nitrile. | – | – |
| CC(C)=CCCC(C)CC#N (stereo not drawn) [citronellyl nitrile, reference compound] | – | disappointing, flat, fatty, much less lemony | – |
| CCC(C)=CCCC(C)=CC#N [lemonile, 3,7-dimethyl-2,6-nonadienenitrile, reference compound] | – | almost as lemony as the one obtained with 3,6,7-trimethyl-2,6-octadienenitrile, but more disharmonious, less natural and more chemical | too much fatty and citronella like |
| CC(C)=CCCC(C)=CC#N [3,7-dimethyl-2,6-octadienenitrile, reference compound] | – | – | too much fatty and rosy like |

Reference: patent US8313736B2, “Chemically stable ingredients as lemon odorant” (Firmenich SA, priority 2008, dated 2012)
